# Values joined by “and” are separate entries in the source; they are usually repeats but may differ in a detail not shown here. Equal entries are not always repeated. The campaign covered roughly 400,000 compounds. About 3,700 (0.93%) were called active. The shares of active, inactive and inconclusive entries below differ from those in the screen. Calls come from the whole dose curve; as a rule, active = well fitted inhibition curve with a large enough effect; inconclusive = small, poorly fitted or top-dose-only effect, or another doubt; inactive = no such curve, though single readings can be large or run the other way. Where the call is inconclusive, the potency comes from a doubtful curve fit.
# The chains behind the UniProt entries cited, without tags or fusion partners. Where a name states a change or a piece, a line headed by the entry shows the natural chain unless it says otherwise.
# UniProt P11473: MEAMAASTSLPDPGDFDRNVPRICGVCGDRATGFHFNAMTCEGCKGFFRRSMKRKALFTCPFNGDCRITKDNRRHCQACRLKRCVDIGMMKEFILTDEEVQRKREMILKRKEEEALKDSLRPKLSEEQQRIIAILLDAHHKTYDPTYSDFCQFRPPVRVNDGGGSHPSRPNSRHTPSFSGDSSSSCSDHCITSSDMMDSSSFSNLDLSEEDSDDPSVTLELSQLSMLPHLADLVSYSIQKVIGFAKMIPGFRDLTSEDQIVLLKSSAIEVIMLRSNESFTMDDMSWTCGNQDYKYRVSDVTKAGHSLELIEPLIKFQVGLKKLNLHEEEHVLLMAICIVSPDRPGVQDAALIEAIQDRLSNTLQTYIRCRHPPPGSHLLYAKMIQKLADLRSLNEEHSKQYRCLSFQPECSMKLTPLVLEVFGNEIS
# Biological target: Vitamin D3 receptor (Homo sapiens) (UniProt P11473)
# Test: Inhibitors of the vitamin D receptor (VDR): qHTS
# Settings: VDR-SRC2-3 peptide fluorescence polarization, 2 h; max response, negative = inhibition: hits give low values
# Summary of the method: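 Fluorescence polarization assay measuring small-molecule disruption of VDR binding to the coregulator peptide SRC2-3. Compounds were pin-transferred (23 nl) into the reagent mix and incubated 2 h at room temperature before reading.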
# % is set by controls: 0 for no effect and ±100 for the full control effect; potency is the fitted concentration of half-maximal effect.
Structure (SMILES),Potency,"max response, negative = inhibition"
C=CCn1c(SCC(=O)c2ccc(NS(=O)(=O)c3ccccc3)cc2)nnc1-c1cccs1,"inconclusive: 44.7 µM [inhibitor, partial curve, poor fit]",–
C=C1C(=O)OC2C1CCC(C)=C1C(=O)C3OC3(C)C12 (stereo not given),"inconclusive: 79.4 µM [inhibitor, single point]",–
Cn1c(=O)c2c(nc(CO)n2C)n(C)c1=O,–,inactive: 2.04%
COc1ccc(CNC(=O)COC(=O)c2cnccn2)cc1,"inconclusive: 100 µM [inhibitor, partial curve, poor fit]",–
CCOc1cc(/C=C2\CN(CC)C/C(=C\c3ccc(O)c(OCC)c3)C2=O)ccc1O,"inconclusive: 56.2 µM [inhibitor, partial curve, poor fit]",–
Cc1ccc2oc(=O)n(CCOc3ccccc3Cl)c2c1,–,inactive: -9.92%
O=C1NC(=S)NC1=Cc1ccco1,active: 28.2 µM,–
COc1ccc(NC(=S)Nc2ccccc2)cc1,–,inactive: -9.4% and inactive: -23.8%
Cc1ccc(-c2nn(-c3ccccc3)cc2CN(Cc2ccccc2)C(=O)c2ccco2)o1,"inconclusive: 89.1 µM [inhibitor, single point]",–
O=C(Nc1nc2c(Br)cccc2s1)C1CC1,"inconclusive: 100 µM [inhibitor, partial curve, poor fit]",–
CCOC(=O)c1c(NC(=O)c2ccc(F)cc2)sc2c1CCC(CC)C2 (stereo not given),"inconclusive: 100 µM [inhibitor, partial curve, poor fit]",–
CCOC(=O)N1CCC(N(CCN(C)C)C(=S)Nc2cccc(C)c2)CC1,"inconclusive: 63.1 µM [inhibitor, partial curve, poor fit]",–
OC[C@@H]1[C@@H](c2ccc(F)cc2)C(c2ccc(F)cc2)=NN1c1ccccc1,"inconclusive: 50.1 µM [inhibitor, partial curve]",–
O=C(COc1ccc(Br)cc1)Nc1ccncc1,"inconclusive: 28.2 µM [inhibitor, partial curve, poor fit]",–
FC(F)(F)c1cccc(N2CCN(CC3CC4C=CC3C4)CC2)c1 (stereo not given),–,inactive: 1.41%
Cc1cccc(NC(=S)N2CCCCC2c2cccnc2)c1C (stereo not given),–,inactive: -12.7%
COC(=O)c1sc(-c2ccc(C(C)(C)C)cc2)cc1NC(=O)c1ccccc1C(=O)O,"inconclusive: 79.4 µM [inhibitor, partial curve, poor fit]",–
Cc1noc(C)c1-c1nccc(NCc2ccccc2)n1,"inconclusive: 50.1 µM [inhibitor, partial curve]",–
O=c1c2c(-c3ccccc3)csc2nc2n1CCC2,–,inactive: -7.4%
COc1cccc(OCCNCc2ccccc2)c1,"inconclusive: 89.1 µM [inhibitor, single point]",–
CCC(=O)Nc1nc2ccc(NC(=O)c3cc(OC)c(OC)c(OC)c3)cc2s1,–,inactive: 4.79%
Cc1ccc(N2C(=O)C(Cl)=C(Nc3c(C)n(C)n(-c4ccccc4)c3=O)C2=O)cc1,–,inactive: -59.2%
O=C(CNS(=O)(=O)c1cccc2nsnc12)NCCc1ccccc1,"inconclusive: 44.7 µM [inhibitor, partial curve]",–

Structure (SMILES),Potency,"max response, negative = inhibition"
Cn1ccnc1C(O)c1cc(C(C)(C)C)c(O)c(C(C)(C)C)c1 (stereo not given),–,inactive: -6.31%
O=C(NCc1ccc2c(c1)OCO2)Nc1ccc([N+](=O)[O-])cc1,–,inactive: 8.04%
O=C1CCc2cc(NS(=O)(=O)c3cc(F)ccc3F)cc3c2N1CC3,"inconclusive: 70.8 µM [inhibitor, partial curve, poor fit]",–
Cn1c(N)c(C(=O)CSc2nc(N)cc(N)n2)c(=O)n(C)c1=O,"inconclusive: 44.7 µM [inhibitor, partial curve, poor fit]",–
O=C(CSC1CC(=O)N(CCc2ccccc2)C1=O)Nc1cccc(Cl)c1 (stereo not given),active: 79.4 µM,–
O=C(c1ccco1)N1CCN(Cc2nnnn2CC2CCCO2)CC1 (stereo not given),"inconclusive: 25.1 µM [inhibitor, single point]",–
O=C(O)c1cc(Nc2cc(Cl)c3nonc3c2[N+](=O)[O-])ccc1O,active: 3.55 µM,–
Cn1c(CNC(=O)CSc2n[nH]c(-c3ccccc3Cl)n2)nc2ccccc21,–,inactive: 7.27%
COc1cc(OC)c(OC)cc1CNCCSc1nnnn1-c1ccccc1,–,inactive: -6.34%
Cn1c(=O)cnc2cnc(Nc3ccccc3)nc21,"inconclusive: 50.1 µM [inhibitor, partial curve]",–
CCOc1ccccc1OCC(=O)Nc1cc(S(=O)(=O)N2CCCCC2)ccc1N1CCN(CC)CC1,"inconclusive: 89.1 µM [inhibitor, single point]",–
CCCN(S(=O)(=O)c1ccccc1F)S(=O)(=O)c1ccccc1Br,–,inactive: 16.9%
O=C(NCC1CC1)C1(C(F)(F)F)C/C(=C\Cc2ccccc2)CCCO1 (stereo not given),"inconclusive: 7.94 µM [inhibitor, partial curve, poor fit]",–
CCN1C(=O)/C(=C/c2ccc(OCc3ccc(C(=O)O)cc3)c(Cl)c2)NC1=S,"inconclusive: 89.1 µM [inhibitor, single point]",–
Cc1cc(SCC(=O)NN)c2cc(Br)ccc2n1,active: 28.2 µM,–
C=C(C)Cn1c(SCC(=O)c2ccc(OC)cc2)nc2sc3c(c2c1=O)CCCC3,–,inactive: -7.14%
CN(c1ccccc1C(=O)Nc1cccc([N+](=O)[O-])c1)S(C)(=O)=O,"inconclusive: 50.1 µM [inhibitor, partial curve, poor fit]",–
Nc1ncc(Br)cc1N=Cc1ccccc1,–,inactive: -3.99%
COc1cc(/C=C2/C(=N)N3C(=NC2=O)SN=C3S(=O)(=O)C(C)C)ccc1OC(=O)c1ccco1,"inconclusive: 89.1 µM [inhibitor, single point]",–
CCOc1ccccc1CNC(=O)C1CCN(S(=O)(=O)c2cccc3nonc23)CC1,–,inactive: 5.57%
Cc1ccc(N=C2NC(=O)/C(=C/C=C/c3ccco3)S2)cc1,"inconclusive: 79.4 µM [inhibitor, partial curve]",–
Nc1[nH]c(=S)nc2nc(-c3ccccc3)c(-c3ccccc3)nc12,"inconclusive: 89.1 µM [inhibitor, single point]",–

# Of the compounds above, these have an NH in an aromatic ring.
Structure (SMILES),Potency,"max response, negative = inhibition"
Cn1c(CNC(=O)CSc2n[nH]c(-c3ccccc3Cl)n2)nc2ccccc21,–,inactive: 7.27%
Nc1[nH]c(=S)nc2nc(-c3ccccc3)c(-c3ccccc3)nc12,"inconclusive: 89.1 µM [inhibitor, single point]",–

# From PubChem BioAssay AID504847 (National Center for Advancing Translational Sciences (NCATS), 2011)
